Reference: PMC6925144, “A prospective compound screening contest identified broader inhibitors for Sirtuin 1” (Scientific Reports, 2019)
Whole data set: some 3,200 compounds, median “TSA(without NAD+) / Primary screening (TSA) / delta Tm (K)” near -0.07, cut for the highest 2% near 0.37. The list shows a part of the results.

Amino acid sequences for entries named in this document (tags omitted). Residues count along the entry.
UniProt Q96EB6, 2-747 limits assumed: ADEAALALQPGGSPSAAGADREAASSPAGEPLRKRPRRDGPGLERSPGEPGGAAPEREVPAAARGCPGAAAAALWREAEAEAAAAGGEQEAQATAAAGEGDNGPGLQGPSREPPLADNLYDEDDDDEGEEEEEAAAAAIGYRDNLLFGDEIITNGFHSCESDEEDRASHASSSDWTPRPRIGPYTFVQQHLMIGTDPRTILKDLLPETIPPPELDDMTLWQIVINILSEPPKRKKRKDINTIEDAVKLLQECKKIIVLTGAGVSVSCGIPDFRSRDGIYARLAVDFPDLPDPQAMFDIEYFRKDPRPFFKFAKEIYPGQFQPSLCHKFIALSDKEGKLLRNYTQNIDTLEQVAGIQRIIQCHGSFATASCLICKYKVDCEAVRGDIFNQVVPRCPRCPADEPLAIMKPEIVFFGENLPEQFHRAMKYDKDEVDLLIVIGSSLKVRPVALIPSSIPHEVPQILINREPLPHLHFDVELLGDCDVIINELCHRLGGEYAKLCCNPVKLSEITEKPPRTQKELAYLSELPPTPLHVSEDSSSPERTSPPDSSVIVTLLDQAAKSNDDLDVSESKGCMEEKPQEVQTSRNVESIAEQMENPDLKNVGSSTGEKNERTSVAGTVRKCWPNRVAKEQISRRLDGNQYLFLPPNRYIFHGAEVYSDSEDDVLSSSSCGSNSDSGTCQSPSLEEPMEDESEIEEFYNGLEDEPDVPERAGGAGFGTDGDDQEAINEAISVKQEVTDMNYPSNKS

target: NAD-dependent deacetylase Sirtuin 1 (human, UniProt Q96EB6); assay: primary screen, delta tm; design: single well (n = 1); details: 10 µM
Method in brief: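 Thermal shift of Sirtuin 1 measured without NAD+, compound at 10 µM (n = 1); value is ΔTm, with hits defined as ΔTm > 0.45 K or < −1.5 K. Hits retested at 5, 10, 20 µM (n = 4) and counterscreened on bovine carbonic anhydrase and ABL1 SH2 domain.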

SMILES	TSA(without NAD+) / Primary screening (TSA) / delta Tm (K)
CC1(c2cccc(N)c2)NC(=O)NC1=O (centres unmarked)	-0.12
CCC(N)CC	-0.08
O=C(O)c1ccc2c(=O)n3c(nc2c1)/C(=C\c1cccc(O)c1)CC3	0.12
CCn1cc(CC(=O)N2CCC(CN3CCCC3)C2)c2ccccc21 (centres unmarked)	-0.32
CCCNC(=O)CSc1nnc(-c2c[nH]c3ccccc23)n1Cc1ccco1	0.02
COc1ccc(N(C)S(=O)(=O)c2cccc(C(=O)Nc3ccc(Br)cc3F)c2)cc1	0.07
CCCOc1ccc(C(=O)C2=C(O)C(=O)N(CCN3CCOCC3)C2c2ccc([N+](=O)[O-])cc2)cc1 (centres unmarked)	-0.04
O=[N+]([O-])c1ccc(CSc2nnc(-c3c[nH]c4ccccc34)n2-c2ccc(Cl)cc2)cc1	0.08
O=C(CCCNC(=O)c1cccs1)NNC(=O)COc1ccccc1-c1ccccc1	-0.03
O=C(NCc1cccnc1N1CCOCC1)C1=COCCO1	-0.17
Cc1cccc(NC=C2C(=O)NC(=S)NC2=O)n1	-0.13
NC(=O)C1CCCN1C1CCN(c2ccnc3c(F)cccc23)CC1 (centres unmarked)	0.02
CC1Cc2ccccc2N1C(=O)c1ccc(Cl)nc1Cl (centres unmarked)	-0.03
COC(=O)NC1(C(=O)Nc2cnc3ccccc3n2)CCCC1	-0.11
O=C(OCc1cc(Cl)ccn1)c1ccc2[nH]c(C(F)F)nc2c1	0.06
COc1ccccc1NC(=O)c1ccc(NC(=O)COC(=O)C23CC4CC(CC(C4)C2)C3)cc1	0.42
CCOc1ccc(NC(=O)CN(C)C(=O)/C=C/c2ccc(S(=O)(=O)N3CCCCCC3)cc2)cc1OCC	-0.03
COC(C)C(=O)O (centres unmarked)	-0.13
Oc1cccc2c1Cc1c-2nc2ccc(Cl)cc2c1-c1ccccc1Cl	0.38
Cc1ccc(C)c(N2C(=O)c3ccc(C(=O)Nc4ccc(Oc5ncccn5)cc4)cc3C2=O)c1	-0.21
CCCCn1c(N)c(N(CCOC)C(=O)c2cccc(S(=O)(=O)N(C)c3ccc(C)cc3)c2)c(=O)[nH]c1=O	-0.17
CN1C(=O)C(C(=O)c2cn(C)c3ccccc23)C(=O)N(C)C1=O	-0.05
Cc1ccc(N(C)S(=O)(=O)c2cccc(C(=O)OCc3cc(=O)oc4cc(C)ccc34)c2)cc1	-0.01

SMILES	TSA(without NAD+) / Primary screening (TSA) / delta Tm (K)
O=[N+]([O-])c1ccc(/C=C/Br)o1	0.02
Cc1c(-c2ccccc2)sc(NC(=O)C2=COCCO2)c1C(=O)N1CCOCC1	-0.23
O=C(NCC(c1ccccc1)c1c[nH]c2ccccc12)C1=COCCO1 (centres unmarked)	-0.23
NC(=O)c1ccc(Cl)c(NC(=O)c2nn(-c3ccccc3)c3c2CCC3)c1	-0.21
CCc1sc(C(=O)Nc2cc(C(N)=O)ccc2N2CCCC2)cc1C	-0.03
Cc1ccc(N(C)S(=O)(=O)c2cccc(C(=O)OC(C)C(N)=O)c2)cc1 (centres unmarked)	-0.12
CN(c1ccccc1)S(=O)(=O)c1cccc(C(=O)Nc2ccccc2-c2nc3ccccc3[nH]2)c1	0.33
O=C(Cn1cnc2ccccc2c1=O)Nc1ccc(N2CCN(Cc3ccccc3)CC2)cc1	-0.02
CCCN(C(=O)CSc1nnc(NCc2ccco2)s1)C1=CCCCC1	0.12
COc1cccc(C2C(C(=O)c3ccco3)=C(O)C(=O)N2CCCN2CCOCC2)c1 (centres unmarked)	-0.23
c1ccc2c3c([nH]c2c1)C1(CCCCC1)NCC3	-0.13
O=c1oc2cc(Cl)ccc2n1Cc1nc(-c2ccco2)no1	0.06
c1ccc(-n2ncc3c(-n4ccnc4)ncnc32)cc1	-0.15
O=C(CN1CCN(c2ncnc3ccsc23)CC1)Nc1ccccc1Cl	-0.34
OCC1(Nc2ncnc3ccsc23)CCC1	-0.22
CCOC(=O)c1c(C2CC2)csc1NC(=O)COC(=O)C1CC(=O)N(c2ccccc2C(C)CC)C1 (centres unmarked)	-0.48
Cc1cc2ncn(CC(NC(=O)C3CC3c3cccnc3)C3CC3)c2cc1C (centres unmarked)	-0.13
CCOc1cc(CN(C)C(C)C(=O)Nc2cc(C)no2)ccc1OC(F)F (centres unmarked)	-0.03
COc1cc(CN(C)C(=O)c2cccc(S(C)(=O)=O)c2)ccc1OCc1ccccc1	0.03
Fc1cccc2[nH]c(CSc3nccn3Cc3ccccn3)nc12	-0.12
COc1cc(C(C)=O)ccc1COc1ccc(C(=O)OC(C)C(=O)NC23CC4CC(CC(C4)C2)C3)cc1OC (centres unmarked)	0.05
CCC(N)COC (centres unmarked)	-0.18
CC(NCc1ccncc1)c1ccccc1 (centres unmarked)	0.06

SMILES	TSA(without NAD+) / Primary screening (TSA) / delta Tm (K)
Cc1cc(C)nc(SCc2ccccc2C(=O)N2CCN(CC(=O)Nc3cccc(F)c3)CC2)n1	-0.11
CC(=O)Nc1ccc(CC(=O)NCC(c2ccccc2)N(C)C)cc1 (centres unmarked)	-0.01
CC(=O)NC12CC3CC(C1)CC(C(=O)Oc1ccc(N(C)S(=O)(=O)c4cc(C)ccc4C)cc1)(C3)C2	-0.02
CC(=O)c1cccc(NC(=O)C(C)OC(=O)c2ccc(OCC(=O)N3C(C)CCCC3C)cc2)c1 (centres unmarked)	0.12
CCCCC(=O)OCC(=O)NCCc1ccc(S(N)(=O)=O)cc1	-0.07
Cc1cc(C=C2C(=O)NC(=S)NC2=O)c(C)n1-c1cccc(F)c1	-0.61
COc1ccccc1CNC(=O)C(Sc1ccccc1)c1ccccc1 (centres unmarked)	-0.15
NC(=O)C1CCN(c2nc(-c3cccnc3)nc3sc4c(c23)CCCC4)CC1	0.33
COc1cccc(C=C2C(=O)NC(=S)NC2=O)c1	0.02
Cc1ccc(-c2csc3ncn(CC(=O)NC(=O)Nc4ccc5c(c4)OCCO5)c(=O)c23)s1	0.26
CN(c1ccccc1)S(=O)(=O)c1cccc(C(=O)OCc2ccccc2C#N)c1	-0.08
CC(N)CCCCN (centres unmarked)	-0.22
Cc1ccc(C)c(OCCSc2nnc(-c3cccnc3)n2N)c1	-0.11
COc1ccc(NC(=O)c2cccc(C(N)=O)c2)cc1OCc1cccnc1	-0.02
Cn1ccnc1SCc1c(C(=O)O)oc2ccccc12	0.02
CN(CC1COc2ccccc2O1)C(=O)CSc1nnc(-c2ccccc2Cl)n1C1CCCC1 (centres unmarked)	-0.13
CC(NC(=O)c1ccc2c(c1)CCC2)c1ncc[nH]1 (centres unmarked)	-0.22
Cc1ccc(C=C2C(=O)NC(=S)NC2=O)o1	-0.13
O=c1scnn1Cc1ncn(-c2ccccc2)n1	-0.13
Cc1cccn2c(=O)cc(COc3cccc4c3CCCC4O)nc12 (centres unmarked)	-0.23
Cn1c(=O)[nH]c(=O)c2nc(CC(O)c3cc4ccccc4o3)c(O)nc21 (centres unmarked)	-0.17
NC(CC(=O)O)C(=O)O (centres unmarked)	-0.04
CCOC(=O)c1c(NC(=O)C(C)OC(=O)c2cccc(S(=O)(=O)N3CCCC3)c2)sc2c1CCC(C)C2 (centres unmarked)	0.18

As entered above.
Entry of CCOc1cc(CN(C)C(C)C(=O)Nc2cc(C)no2)ccc1OC(F)F (centres unmarked) under TSA(without NAD+) / Primary screening (TSA) / delta Tm (K): -0.03
Entry of COc1cc(CN(C)C(=O)c2cccc(S(C)(=O)=O)c2)ccc1OCc1ccccc1 under TSA(without NAD+) / Primary screening (TSA) / delta Tm (K): 0.03
Entry of O=c1scnn1Cc1ncn(-c2ccccc2)n1 under TSA(without NAD+) / Primary screening (TSA) / delta Tm (K): -0.13
Entry of O=[N+]([O-])c1ccc(/C=C/Br)o1 under TSA(without NAD+) / Primary screening (TSA) / delta Tm (K): 0.02

(more compounds)

SMILES	TSA(without NAD+) / Primary screening (TSA) / delta Tm (K)
Cc1ccc(N(C)S(=O)(=O)c2cccc(C(=O)Nc3cc(S(C)(=O)=O)ccc3C)c2)cc1	0.22
COc1ccccc1CNC(=O)COC(=O)c1ccccc1SCC(=O)NC12CC3CC(CC(C3)C1)C2	-0.23
Clc1ncnc2c1nnn2-c1ccccc1	-0.03
O=C(Nc1ccc(NC(=O)c2[nH]c3ccccc3c2Cl)cc1)NC1CC1	0.07
NC(=O)c1cc(NC(=O)c2ccc(NC(=O)NC3CC3)cc2)ccc1F	-0.15
O=c1n(CCCc2nc3ccccc3o2)nc2ccccn12	-0.08
Cc1nc(-n2ccnc2)c2cnn(-c3cccc(Cl)c3)c2n1	-0.18
O=C(O)CCCc1ccc2c(c1)-c1ccccc1C2	-0.11
Cc1no[n+]([O-])c1COc1cccc(C=C2C(=O)NC(=S)NC2=O)c1	-0.11
O=c1cc(CSc2ncc(C(F)(F)F)cc2Cl)nc2ccccn12	-0.23
CCc1ccc(CNC(=O)N2CCOC(C)(c3cnn(C)c3)C2)cc1 (centres unmarked)	-0.15
O=C(CSc1nc2ccccc2o1)N(Cc1ccccc1)c1nc2c(s1)CCCC2	0.27
CC(C(=O)Nc1ccc(C(N)=O)cc1)N1CCN(CCOc2ccccc2)CC1 (centres unmarked)	-0.23
CC(Oc1ccc(-c2nc3ccccc3s2)cc1)C(=O)NCc1ccco1 (centres unmarked)	-0.12
Cc1cc(C#N)ccc1S(=O)(=O)N1CC[C@H](N)C1	-0.18
CCOCc1c(C(=O)Nc2ccc(N3CCN(Cc4ccccc4)CC3)cc2)oc2ccccc12	0.27
COc1ccc(-c2csc3nc(C)nc(N4CCN(CC(=O)NC5CC5)CC4)c23)cc1OC	-0.11
Cc1ccccc1SCC(=O)NC1CCCCNC1=O (centres unmarked)	-0.12
NC(=O)c1cc(NCC(=O)Nc2ccccc2Cl)c(F)cc1F	-0.12
c1ccc(-c2nc(CN3CCN(c4ncnc5sc6c(c45)CCCC6)CC3)cs2)cc1	-0.11
Cc1ccc(-c2n[nH]cc2CNCc2ccc(CN(C)C)cc2)cc1	-0.12
Cc1c(O)ccc2c(CN3CCCC3c3ccc[nH]3)cc(=O)oc12 (centres unmarked)	-0.05
CCNCCOCCN	-0.11
